Reference: PubChem BioAssay AID330 (DTP/NCI, 2004)
The list is a part of this screen's results and no random one: it gathers tests that were run many times, whatever their T/C, doses with no T/C, and many T/C values between a quarter and a half above the control. Further doses and runs are listed elsewhere. T/C gives the treated animals as a percentage of the vehicle group. Some doses have a count of surviving animals in place of a T/C: the source holds a T/C of zero for them, seemingly a mark for toxic or unscored doses. Some survivor counts are full or nearly so, which does not show that the dose was tolerated: survival well below the control is almost never listed, so the zero probably covers shortened survival too. Survivors were counted at the toxicity check, usually on the fifth day, unless a day is given; later deaths do not show. Schedule codes are those of the source, read here as Q, the interval in days (D) or hours (H), X, the number of doses. Some entries were tested several times; the results are listed from low to high. For survival time, the PubChem record calls one and a half times the control and up active, and a quarter to a half above the control has no call in these data; cut-offs in other NCI protocols can differ. Some T/C values carry the count of animals alive at the toxicity check (mostly the fifth day); where none is given, no animal had died by that day.

System: P388 leukemia ip, CD2F1 mice, survival T/C
Test: NCI In Vivo Anticancer Drug Screen. Data for tumor model P388 Leukemia (intraperitoneal) in CD2F1 (CDF1) mice
Settings: T/C endpoint: median survival time, higher T/C = longer survival
[1] = dose: 200.0 mg/kg/injection, schedule: Q04DX003 (ip), vehicle: saline with Tween-80
[2] = dose: 400.0 mg/kg/injection, schedule: Q04DX003 (ip), vehicle: saline with Tween-80
[3] = dose: 200.0 mg/kg/injection, schedule: Q01DX009 (ip), vehicle: saline with Tween-80
[4] = dose: 50.0 mg/kg/injection, schedule: Q01DX005 (ip), vehicle: Klucel (hydroxypropylcellulose) (HPC)
[5] = dose: 100.0 mg/kg/injection, schedule: Q01DX005 (ip), vehicle: Klucel (hydroxypropylcellulose) (HPC)
[6] = dose: 200.0 mg/kg/injection, schedule: Q01DX009 (ip), vehicle: saline
[7] = dose: 50.0 mg/kg/injection, schedule: Q01DX005 (ip), vehicle: saline with Tween-80
[8] = dose: 100.0 mg/kg/injection, schedule: Q01DX005 (ip), vehicle: saline with Tween-80
[9] = dose: 200.0 mg/kg/injection, schedule: Q01DX005 (ip), vehicle: saline with Tween-80
[10] = dose: 50.0 mg/kg/injection, schedule: Q01DX009 (ip), vehicle: saline
[11] = dose: 100.0 mg/kg/injection, schedule: Q01DX009 (ip), vehicle: saline
[12] = dose: 200.0 mg/kg/injection, schedule: Q01DX005 (ip), vehicle: Klucel (hydroxypropylcellulose) (HPC)
[13] = dose: 240.0 mg/kg/injection, schedule: Q01DX005 (ip), vehicle: saline
[14] = dose: 100.0 mg/kg/injection, schedule: Q04DX002 (ip), vehicle: saline with Tween-80

Structure (SMILES): CCOC(=O)c1sc(SSc2sc(C(=O)OCC)c(C)c2[N+](=O)[O-])c([N+](=O)[O-])c1C
- survivor count [1]: 5 of 6
- survivor count [2]: 6 of 6

Structure (SMILES): C=C1C(=O)O[C@@H]2C[C@@]3(C)CCC[C@H](C)C3=C[C@H]12
- survivor count (dose: 400.0 mg/kg/injection, schedule: Q01DX009 (ip), vehicle: saline with Tween-80): 1 of 6

Structure (SMILES): CCCCCCC(=O)/C=C/c1ccc(OC(=O)c2ccc(Br)cc2)cc1
- survivor count (dose: 50.0 mg/kg/injection, schedule: Q01DX009 (ip), vehicle: saline with Tween-80): 6 of 6
- survivor count (dose: 100.0 mg/kg/injection, schedule: Q01DX009 (ip), vehicle: saline with Tween-80): 6 of 6
- survivor count [3]: 6 of 6

Structure (SMILES): CCCn1c(CC)nc([N+](=O)[O-])c1Sc1ncnc2nc[nH]c12
- T/C [4]: 129 and 133 % of control
- T/C [5]: 134 and 142 % of control

Structure (SMILES): CCN(CC)C(=O)C1CCN(Cc2c[nH]c3ccccc23)CC1
- survivor count [6]: 1 of 6

Structure (SMILES): Cc1c2c[n+](CCCCCCCC[n+]3ccc4c(C)c5c(c(C)c4c3)c3ccccc3n5CCO)ccc2c(C)c2c1c1ccccc1n2CCO
- T/C (dose: 3.13 mg/kg/injection, schedule: Q04DX003 (ip), vehicle: distilled water + Tween-80): 147 and 148 % of control
- survivor count (dose: 25.0 mg/kg/injection, schedule: Q04DX003 (ip), vehicle: distilled water + Tween-80): 5 of 6
- survivor count (dose: 50.0 mg/kg/injection, schedule: Q04DX003 (ip), vehicle: distilled water + Tween-80): 6 of 6
- survivor count (dose: 100.0 mg/kg/injection, schedule: Q04DX003 (ip), vehicle: distilled water + Tween-80): 5 of 6

Structure (SMILES): NC(N)=N/N=C/c1c2ccccc2cc2ccccc12
- T/C (dose: 50.0 mg/kg/injection, schedule: Q01DX005 (ip), vehicle: saline with Tween-80, evaluated on day 20): 111 % of control
- T/C (dose: 50.0 mg/kg/injection, schedule: Q01DX005 (ip), vehicle: saline with Tween-80, evaluated on day 30): 116 % of control [5 of 6 alive]
- survivor count [7]: 0 of 6 and 3 of 6
- survivor count [8]: 3 of 6
- survivor count [9]: 0 of 6

Structure (SMILES): CN(C)P1(=S)OCC(C(C)(C)C)CN1C (centres undefined)
- survivor count [2]: 1 of 6

Structure (SMILES): CC1(C)OC(=O)N(CO)C1=O
- T/C [10]: 126 % of control [5 of 6 alive]
- T/C [11]: 133 % of control [5 of 6 alive]
- T/C [6]: 142 % of control
- survivor count (dose: 400.0 mg/kg/injection, schedule: Q01DX009 (ip), vehicle: saline): 2 of 6

Structure (SMILES): CCCCN=Cc1c(OC(C)=O)c(OC(C)=O)c(C(C)C)c2cc(C)c(-c3c(C)cc4c(C(C)C)c(OC(C)=O)c(OC(C)=O)c(C=NCCCC)c4c3OC(C)=O)c(OC(C)=O)c12
- survivor count [4]: 6 of 6
- survivor count [5]: 6 of 6
- survivor count [12]: 6 of 6

Structure (SMILES): Cc1ncc([N+](=O)[O-])n1CCO
- T/C (dose: 16.0 mg/kg/injection, schedule: Q01DX009 (ip), vehicle: saline with Tween-80): 127 % of control
- T/C (dose: 32.0 mg/kg/injection, schedule: Q01DX009 (ip), vehicle: saline with Tween-80): 126 % of control
- T/C (dose: 256.0 mg/kg/injection, schedule: Q01DX009 (ip), vehicle: saline with Tween-80): 127 % of control [5 of 6 alive]

Structure (SMILES): CC1SC(c2ccc(Cl)cc2)N2C(=O)C(C)SC(c3ccc(Cl)cc3)N2C1=O (centres undefined)
- survivor count [3]: 6 of 6

Structure (SMILES): CN(C(=S=O)c1ccc(Cl)cc1)c1ccccc1
- survivor count [10]: 6 of 6
- survivor count (dose: 50.0 mg/kg/injection, schedule: Q01DX009 (ip), vehicle: suspension in saline): 6 of 6
- survivor count (dose: 200.0 mg/kg/injection, schedule: Q01DX009 (ip), vehicle: suspension in saline): 6 of 6

Structure (SMILES): CCC1C2Cc3ccc(O)cc3C1(C)CCN2 (centres undefined)
- survivor count [13]: 2 of 6

Structure (SMILES): CC(C)n1ncc2c(N)ncnc21
- survivor count (dose: 30.0 mg/kg/injection, schedule: Q01DX009 (ip), vehicle: saline): 6 of 6
- survivor count (dose: 60.0 mg/kg/injection, schedule: Q01DX009 (ip), vehicle: saline): 4 of 6

Structure (SMILES): COc1cc(C=C2C(=O)C=CC2=O)cc(OC)c1O
- survivor count (dose: 25.0 mg/kg/injection, schedule: Q04DX002 (ip), vehicle: saline with Tween-80): 0 of 6
- survivor count (dose: 50.0 mg/kg/injection, schedule: Q04DX002 (ip), vehicle: saline with Tween-80): 0 of 6
- survivor count [14]: 0 of 6

Structure (SMILES): CCCn1c(C)nc2c(N)cc(C)cc21
- survivor count [12]: 4 of 6

Structure (SMILES): Cc1ccccc1C(C)C[n+]1cccc(C)c1C (centres undefined)
- survivor count (dose: 25.0 mg/kg/injection, schedule: Q01DX005 (ip), vehicle: saline with Tween-80): 2 of 5
- survivor count [7]: 1 of 5
- survivor count [8]: 0 of 5
- survivor count [9]: 0 of 5

Structure (SMILES): CN(C)CC(O)c1ccc2cc(Br)c3ccccc3c2c1 (centres undefined)
- survivor count [8]: 1 of 5
- survivor count [9]: 0 of 5

Structure (SMILES): COC(=O)c1[c]([Sn]([CH3])([CH3])[CH3])n[n]([Pb]([CH3])([CH3])[CH3])c1C(=O)OC
- survivor count (dose: 100.0 mg/kg/injection, schedule: Q04DX003 (ip), vehicle: saline with Tween-80): 0 of 6
- survivor count [1]: 0 of 6
- survivor count [2]: 0 of 6

Structure (SMILES): CCOC(=O)Nc1cc2c(c(N)n1)N=C(c1ccc3ccccc3c1)CN2
- T/C (dose: 3.7 mg/kg/injection, schedule: Q01DX005 (ip), vehicle: saline with Tween-80): 136 % of control
- survivor count (dose: 15.0 mg/kg/injection, schedule: Q01DX005 (ip), vehicle: saline with Tween-80): 4 of 5

Structure (SMILES): Cc1nc2[nH]cc(-c3ccccc3)c2c(=N)n1-c1ccccc1
- survivor count [5]: 6 of 6
- survivor count [12]: 6 of 6

Structure (SMILES): O=S(=O)(O)Cc1ccc(CS(=O)(=O)O)cc1
- survivor count [14]: 3 of 6
- survivor count (dose: 200.0 mg/kg/injection, schedule: Q04DX002 (ip), vehicle: saline with Tween-80): 0 of 6
- survivor count (dose: 400.0 mg/kg/injection, schedule: Q04DX002 (ip), vehicle: saline with Tween-80): 0 of 6

Structure (SMILES): O=C(NCCCCCCNC(=O)C1CCCN1)C1CCCN1 (centres undefined)
- survivor count (dose: 120.0 mg/kg/injection, schedule: Q01DX005 (ip), vehicle: saline): 4 of 6
- survivor count [13]: 0 of 6

Structure (SMILES): CCN(CC)CCOC(=O)Cc1cccc2c(=O)cc(-c3cccs3)oc12
- T/C [5]: 136 % of control
- survivor count [12]: 5 of 6

Structure (SMILES): CC(C)N(C(=O)c1ccc(Cl)c(Cl)c1)C(C)C
- T/C (dose: 50.0 mg/kg/injection, schedule: Q04DX003 (ip), vehicle: saline with Tween-80): 133 % of control

Structure (SMILES): CCCCCCCCCCCCCCCC[N+]1(CC)CCCCC1
- survivor count (dose: 1.56 mg/kg/injection, schedule: Q01DX009 (ip), vehicle: saline): 1 of 6
- survivor count (dose: 3.12 mg/kg/injection, schedule: Q01DX009 (ip), vehicle: saline): 6 of 6
- survivor count (dose: 6.25 mg/kg/injection, schedule: Q01DX009 (ip), vehicle: saline): 2 of 6
- survivor count (dose: 12.5 mg/kg/injection, schedule: Q01DX009 (ip), vehicle: saline): 1 of 6
- survivor count [10]: 0 of 6
- survivor count [11]: 0 of 6
- survivor count [6]: 0 of 6

Structure (SMILES): CCN(CC)CCCC(c1ccccc1)c1ccccc1
- survivor count [8]: 0 of 5
- survivor count [9]: 0 of 5

Structure (SMILES): CCCCCCCCCCCCCCCCN1CCSCC1
- survivor count [6]: 1 of 6

Structure (SMILES): CN(C)c1ccc(C2c3c(oc4ccccc4c3=O)Oc3oc4ccccc4c(=O)c32)cc1
- survivor count (dose: 60.0 mg/kg/injection, schedule: Q01DX005 (ip), vehicle: saline with Tween-80): 6 of 6
- survivor count (dose: 120.0 mg/kg/injection, schedule: Q01DX005 (ip), vehicle: saline with Tween-80): 6 of 6
- survivor count (dose: 240.0 mg/kg/injection, schedule: Q01DX005 (ip), vehicle: saline with Tween-80): 6 of 6
